In patent US7579324B2, “Conjugates of biologically active compounds, methods for their preparation and use, formulation and pharmaceutical applications thereof” (c-a-i-r biosciences GmbH, priority 2002, dated 2009):

Columns and labels:
lymphocytes = assay: Proliferation assay (lymphocytes, BrdU ELISA); type: cell-based, mammalian; settings: ratio of IC50 at 2 h to IC50 at 72 h; lower = better uptake and release
white blood cells = assay: Immune cell selective uptake (immune selectivity ratio) in blood cell preparations; type: cell-based, mammalian; settings: fluorescent image of polymorphonuclear cells (FIG. 3)
Description: Freshly drawn heparinised blood or buffy coat preparations are used for the determination of immune cell partition ratios. Buffy coat preparations are preferred. These may be obtained from donor blood by simple centrifugation of whole blood (4795 g for 10 minutes). Following centrifugation, plasma is collected from the surface, after which immune cells are expressed from the donor bags along with the erythrocytes lying immediately below the leukocyte layer. This ensures high yields and a sufficient population of erythrocytes for partition. 5 ml of the resulting cell suspension are dispensed into T25 culture flasks. Substrates are added to a final concentration between 1 and 10 μM and the suspensions incubated at 37° C., in a 5% CO2 atmosphere. For analysis of uptake kinetics, samples are withdrawn at 0, 2, 5, 10, 30, 60, 90, 180, or 240 min after substrate addition. For screening purposes, samples are taken at 0 and 120 minutes. […]
Uptake of fluorescent compounds is monitored using fluorescence microscopy. Excitation and emission wavelengths depend of the fluorescence label in use. […]
Cell lysates are analysed using a HP 1100 HPLC System (Agilent Technologies, Waldbronn, Germany) with a Kromasil 3.5μ C18, 50×2.0 mm column and guard cartridge system (both, Phenomenex, Aschaffenburg, Germany) run at 30° C. […]
Masses are monitored according to the known or expected M/Z ratios. […]

Compound: CC[C@H]1OC(=O)[C@H](C)C(=O)[C@H](C)[C@@H](O[C@@H]2O[C@H](C)C[C@H](N(C)C)[C@H]2OC(=O)CC/C(C)=C/Cc2c(O)c3c(c(C)c2OC)COC3=O)[C@](C)(O)C[C@@H](C)CN(C)[C@H](C)[C@@H](O)[C@]1(C)O [Compound 79]
- Ratio (2 h:72 h) (lymphocytes): 2.63

Compound: CC[C@H]1OC(=O)[C@H](C)[C@@H](O)[C@H](C)[C@@H](O[C@@H]2O[C@H](C)C[C@@H](N(C)CCOC(=O)CC/C(C)=C/Cc3c(O)c4c(c(C)c3OC)COC4=O)[C@@H]2N(C)C)[C@](C)(O)C[C@@H](C)CN(C)[C@H](C)[C@@H](O)[C@]1(C)O [Compound 74]
- Ratio (2 h:72 h) (lymphocytes): 1.45

Compound: CC[C@H]1OC(=O)[C@H](C)[C@@H](O[C@H]2C[C@@](C)(OC)[C@@H](O)[C@H](C)O2)[C@H](C)[C@@H](O[C@@H]2O[C@H](C)C[C@@H](OC(=O)CC/C(C)=C/Cc3c(O)c4c(c(C)c3OC)COC4=O)[C@@H]2N2CCOCC2)[C@](C)(O)C[C@@H](C)CN(C)[C@H](C)[C@@H](O)[C@]1(C)O [Compound 80]
- Ratio (2 h:72 h) (lymphocytes): 3.53

Compound: CCOC(=O)CC/C(C)=C/Cc1c(OC)c(C)c2c(c1OC(=O)CCC(=O)O[C@@H]1C(N(C)C)C[C@@H](C)O[C@H]1O[C@@H]1[C@@H](C)[C@H](O[C@H]3C[C@@](C)(OC)[C@@H](O)[C@H](C)O3)[C@@H](C)C(=O)O[C@H](CC)[C@@](C)(O)[C@H](O)[C@@H](C)N(C)C[C@H](C)C[C@@]1(C)O)C(=O)OC2 (some centres unmarked) [Compound 69]
- Ratio (2 h:72 h) (lymphocytes): 1.9

Compound: CC[C@H]1OC(=O)[C@H](C)[C@@H](OC2C[C@@](C)(OC)[C@@H](O)[C@H](C)O2)[C@H](C)[C@@H](OC2O[C@H](C)C[C@H](N(C)C)[C@H]2O)[C@](C)(O)C[C@@H](C)/C(=N/OCc2cc(=O)oc3cc(OC)c(OC)cc23)[C@H](C)[C@@H](O)[C@]1(C)O (some centres unmarked) [Compound 3]
- intracellular distribution (white blood cells): even distribution with some concentration near the nucleus

Compound: COc1c(C)c2c(c(O)c1C/C=C(\C)CCC(=O)OCCN1CCOCC1)C(=O)OC2 [Mycophenolate mofetil, reference compound]
- Ratio (2 h:72 h) (lymphocytes): 4.5

Compound: COc1c(C)c2c(c(O)c1C/C=C(\C)CCC(=O)O)C(=O)OC2 [Mycophenolic acid]
- Ratio (2 h:72 h) (lymphocytes): 4.63

Compound: COc1c(C)c2c(c(O)c1C/C=C(\C)CCC(=O)OC(COCCCCOCC(CN1CCOCC1)OC(=O)CC/C(C)=C/Cc1c(O)c3c(c(C)c1OC)COC3=O)CN1CCOCC1)C(=O)OC2 (centres unmarked) [Compound 81]
- Ratio (2 h:72 h) (lymphocytes): 1.6
